{"source": "patent US20260356834A1", "about": "“ANTICONVULSIVE COMPOUNDS AND USES THEREOF” (Jazz Pharmaceuticals Research UK Limite, priority 2023, published 2026)", "tested_on": "C57BL/6J mice", "assay": "mouse maximal electroshock seizure threshold model (MEST)", "format": "in vivo", "details": "2.5 mg/kg i.p., 30 min", "procedure": "Vehicle=1:2:17 ethanol:Solutol® (Kolliphor® HS 15):saline: 1 mL of ethanol and 2 mL of solutol were warmed to 60 °C and 17 mL of 0.9% saline was added slowly. […]\nVehicle=0.5% HPMC and 0.1% Tween 80:0.5% HPMC and 0.1% Tween 80 in water.", "note": "Values joined by “and” are separate entries in the source; they are usually repeats but may differ in a detail not shown here. Equal values may be shown once."}
{"smiles": "CN1C(=O)CN=C(c2ccccc2)c2cc(Cl)ccc21", "note": "[Diazepam, diazepam, reference compound]", "values": [{"measurement": "CC50 +/− SEM", "setting": "1:1:18 ethanol:Kolliphor EL:saline", "value": "126.5 ± 2.1", "unit": "mA"}, {"measurement": "CC50 +/− SEM", "setting": "1:2:17 ethanol:Solutol:saline", "value": "125.8 ± 3.9", "unit": "mA"}, {"measurement": "CC50 +/− SEM", "setting": "study with HPMC vehicle", "value": "197.5 ± 3.2 mA and 165.8 ± 1.4 mA"}]}
